Laboratory results reported in patent US20160159879A1 (UNIVERSITY OF NORTH CAROLINA AT CHAPEL HILL, published 2016).
These are yes or no findings as the source states them, for the method shown. In cells and extracts the contact can be indirect. Some binding calls cover weakened binding; strength is not graded here. Sequences can lack the tags named with a protein.

Assays:
[1] = molecular target: T1, Human βENaC subunit, HA (N-terminus) and V5 (C-terminus) tagged, expressed in HEK293T cells (human) (UniProt P51168); assay: peptide pull-down with EndoH treatment of the elution or tunicamycin-treated cells, Western blot
T1 sequence (glycosylated (EndoH and tunicamycin experiments, p-0362), looked up): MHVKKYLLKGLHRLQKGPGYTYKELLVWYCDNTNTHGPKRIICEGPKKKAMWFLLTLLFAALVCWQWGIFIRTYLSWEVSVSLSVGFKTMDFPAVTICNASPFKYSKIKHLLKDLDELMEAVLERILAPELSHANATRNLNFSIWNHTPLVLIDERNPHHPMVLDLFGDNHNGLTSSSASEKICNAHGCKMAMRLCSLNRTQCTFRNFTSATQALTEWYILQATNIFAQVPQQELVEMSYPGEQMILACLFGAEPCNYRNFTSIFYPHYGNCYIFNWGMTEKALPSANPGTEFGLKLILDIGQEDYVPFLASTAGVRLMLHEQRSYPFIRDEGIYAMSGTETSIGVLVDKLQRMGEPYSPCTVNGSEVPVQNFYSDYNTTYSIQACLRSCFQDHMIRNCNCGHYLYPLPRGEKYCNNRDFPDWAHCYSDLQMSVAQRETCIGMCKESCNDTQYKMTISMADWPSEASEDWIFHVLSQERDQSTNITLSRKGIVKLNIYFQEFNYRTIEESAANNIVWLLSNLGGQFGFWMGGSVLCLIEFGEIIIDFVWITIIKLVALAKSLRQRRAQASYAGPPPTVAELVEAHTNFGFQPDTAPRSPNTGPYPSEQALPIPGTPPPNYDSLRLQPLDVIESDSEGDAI

[2] = molecular target: T1, Human βENaC subunit, HA (N-terminus) and V5 (C-terminus) tagged, expressed in HEK293T cells (human); assay: biotinylated-S18 pull-down of ENaC subunits individually expressed in HEK cells
[3] = molecular target: T1, Human βENaC subunit, HA (N-terminus) and V5 (C-terminus) tagged, expressed in HEK293T cells (human); assay: peptide pull-down, Western blot
[4] = molecular target: T1, Human βENaC subunit, HA (N-terminus) and V5 (C-terminus) tagged, expressed in HEK293T cells (human); assay: peptide pull-down with EndoH or tunicamycin, Western blot
[5] = molecular target: T1, Human βENaC subunit, HA (N-terminus) and V5 (C-terminus) tagged, expressed in HEK293T cells (human); assay: peptide pull-down with S18 or ADG, Western blot, n=3
[6] = molecular target: T1, Human βENaC subunit, HA (N-terminus) and V5 (C-terminus) tagged, expressed in HEK293T cells (human); assay: pull-down with biotinylated S18 of subunits expressed individually, Western blot

Measured: binding

B1: Biotinylated S18 peptide (peptide)
peptide: GGLPVPLDQTLPLNVNPA
modifications: biotinylated N-terminus
binds: all assays above
